The values that follow come from the supplement of paper PMC7666118.

Amino acid sequences for entries named in this document (tags omitted). A change or cut given only in a name is not applied to a line headed by its entry.
UniProt P50747: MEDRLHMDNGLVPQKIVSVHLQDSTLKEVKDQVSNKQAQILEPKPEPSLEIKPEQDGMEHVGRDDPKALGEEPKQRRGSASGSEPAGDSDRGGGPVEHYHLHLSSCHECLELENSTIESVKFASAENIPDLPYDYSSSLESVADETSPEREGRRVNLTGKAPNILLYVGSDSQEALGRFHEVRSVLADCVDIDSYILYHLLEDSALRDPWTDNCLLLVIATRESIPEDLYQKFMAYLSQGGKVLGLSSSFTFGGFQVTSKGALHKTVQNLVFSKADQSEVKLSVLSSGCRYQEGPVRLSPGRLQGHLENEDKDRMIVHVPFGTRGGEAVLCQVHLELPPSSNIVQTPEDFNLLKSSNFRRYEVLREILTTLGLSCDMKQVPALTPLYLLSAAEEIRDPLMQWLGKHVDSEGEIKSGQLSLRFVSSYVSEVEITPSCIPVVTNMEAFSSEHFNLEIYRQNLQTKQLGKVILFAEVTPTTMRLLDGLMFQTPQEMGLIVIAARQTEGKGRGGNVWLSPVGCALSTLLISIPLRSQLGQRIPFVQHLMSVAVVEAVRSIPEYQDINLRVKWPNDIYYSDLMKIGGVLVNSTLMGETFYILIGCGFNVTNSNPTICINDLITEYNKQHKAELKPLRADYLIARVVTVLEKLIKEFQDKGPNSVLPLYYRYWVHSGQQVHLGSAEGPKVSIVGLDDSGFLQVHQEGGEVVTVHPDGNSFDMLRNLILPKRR
UniProt P17174: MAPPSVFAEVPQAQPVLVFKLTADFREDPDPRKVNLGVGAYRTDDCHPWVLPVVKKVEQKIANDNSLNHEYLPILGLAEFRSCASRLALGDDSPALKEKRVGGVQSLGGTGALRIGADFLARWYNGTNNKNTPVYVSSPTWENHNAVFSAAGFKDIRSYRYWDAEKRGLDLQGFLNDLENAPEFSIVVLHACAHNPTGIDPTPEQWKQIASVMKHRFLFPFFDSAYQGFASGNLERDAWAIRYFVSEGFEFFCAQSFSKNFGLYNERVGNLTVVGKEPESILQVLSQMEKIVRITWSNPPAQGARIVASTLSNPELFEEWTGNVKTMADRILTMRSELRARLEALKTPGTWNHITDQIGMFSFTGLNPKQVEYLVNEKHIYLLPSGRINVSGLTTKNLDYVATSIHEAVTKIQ
UniProt P00505: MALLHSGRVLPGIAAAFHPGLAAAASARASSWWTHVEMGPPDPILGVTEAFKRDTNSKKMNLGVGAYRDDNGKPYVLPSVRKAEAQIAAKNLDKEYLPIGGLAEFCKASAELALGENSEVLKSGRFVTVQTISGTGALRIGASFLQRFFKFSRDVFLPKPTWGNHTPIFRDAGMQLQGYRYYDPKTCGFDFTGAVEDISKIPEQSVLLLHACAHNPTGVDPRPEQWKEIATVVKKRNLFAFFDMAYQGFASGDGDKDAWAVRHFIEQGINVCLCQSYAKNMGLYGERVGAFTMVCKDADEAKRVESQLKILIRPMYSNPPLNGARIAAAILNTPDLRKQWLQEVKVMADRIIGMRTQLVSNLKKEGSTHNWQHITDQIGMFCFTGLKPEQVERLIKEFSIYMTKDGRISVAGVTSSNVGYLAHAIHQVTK
UniProt P51858: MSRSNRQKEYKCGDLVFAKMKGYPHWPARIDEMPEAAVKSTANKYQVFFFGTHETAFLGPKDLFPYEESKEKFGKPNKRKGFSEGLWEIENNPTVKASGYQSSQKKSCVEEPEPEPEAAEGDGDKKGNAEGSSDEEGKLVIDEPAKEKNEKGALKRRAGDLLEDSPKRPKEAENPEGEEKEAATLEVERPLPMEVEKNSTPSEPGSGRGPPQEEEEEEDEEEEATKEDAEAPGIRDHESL
UniProt P48637: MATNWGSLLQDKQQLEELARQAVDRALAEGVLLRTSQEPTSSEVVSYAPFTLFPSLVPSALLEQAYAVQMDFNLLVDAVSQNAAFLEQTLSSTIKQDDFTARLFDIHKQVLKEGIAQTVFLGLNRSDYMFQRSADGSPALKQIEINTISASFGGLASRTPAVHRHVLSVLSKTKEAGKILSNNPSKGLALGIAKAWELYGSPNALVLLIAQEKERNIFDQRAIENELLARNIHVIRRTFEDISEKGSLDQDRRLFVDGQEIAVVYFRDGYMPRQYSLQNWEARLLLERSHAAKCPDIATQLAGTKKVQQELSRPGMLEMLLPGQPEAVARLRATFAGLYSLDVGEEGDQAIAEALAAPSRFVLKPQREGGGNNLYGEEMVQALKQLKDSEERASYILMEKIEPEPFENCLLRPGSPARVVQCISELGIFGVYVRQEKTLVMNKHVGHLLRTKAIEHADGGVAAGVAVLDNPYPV
UniProt P35754: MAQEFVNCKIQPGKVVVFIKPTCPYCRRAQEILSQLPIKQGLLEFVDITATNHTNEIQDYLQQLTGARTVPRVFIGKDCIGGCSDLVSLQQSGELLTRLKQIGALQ
UniProt Q9UJY5: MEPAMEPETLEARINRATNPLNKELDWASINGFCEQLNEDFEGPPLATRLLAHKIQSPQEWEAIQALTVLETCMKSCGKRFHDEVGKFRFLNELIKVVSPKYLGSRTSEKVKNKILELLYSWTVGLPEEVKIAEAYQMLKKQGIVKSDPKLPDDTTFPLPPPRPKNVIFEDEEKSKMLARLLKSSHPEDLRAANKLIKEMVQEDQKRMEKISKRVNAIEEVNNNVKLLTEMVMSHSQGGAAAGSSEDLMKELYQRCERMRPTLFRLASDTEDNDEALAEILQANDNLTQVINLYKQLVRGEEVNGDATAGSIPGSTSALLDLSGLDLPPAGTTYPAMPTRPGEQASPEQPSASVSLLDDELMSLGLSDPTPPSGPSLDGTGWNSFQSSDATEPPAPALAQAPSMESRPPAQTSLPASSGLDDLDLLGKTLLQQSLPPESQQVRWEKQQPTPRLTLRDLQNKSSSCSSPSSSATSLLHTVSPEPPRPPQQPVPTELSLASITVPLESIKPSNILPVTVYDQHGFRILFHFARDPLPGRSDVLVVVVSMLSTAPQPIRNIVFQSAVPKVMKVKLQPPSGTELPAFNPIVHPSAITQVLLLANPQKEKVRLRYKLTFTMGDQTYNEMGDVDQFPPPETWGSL
UniProt Q9NRZ9: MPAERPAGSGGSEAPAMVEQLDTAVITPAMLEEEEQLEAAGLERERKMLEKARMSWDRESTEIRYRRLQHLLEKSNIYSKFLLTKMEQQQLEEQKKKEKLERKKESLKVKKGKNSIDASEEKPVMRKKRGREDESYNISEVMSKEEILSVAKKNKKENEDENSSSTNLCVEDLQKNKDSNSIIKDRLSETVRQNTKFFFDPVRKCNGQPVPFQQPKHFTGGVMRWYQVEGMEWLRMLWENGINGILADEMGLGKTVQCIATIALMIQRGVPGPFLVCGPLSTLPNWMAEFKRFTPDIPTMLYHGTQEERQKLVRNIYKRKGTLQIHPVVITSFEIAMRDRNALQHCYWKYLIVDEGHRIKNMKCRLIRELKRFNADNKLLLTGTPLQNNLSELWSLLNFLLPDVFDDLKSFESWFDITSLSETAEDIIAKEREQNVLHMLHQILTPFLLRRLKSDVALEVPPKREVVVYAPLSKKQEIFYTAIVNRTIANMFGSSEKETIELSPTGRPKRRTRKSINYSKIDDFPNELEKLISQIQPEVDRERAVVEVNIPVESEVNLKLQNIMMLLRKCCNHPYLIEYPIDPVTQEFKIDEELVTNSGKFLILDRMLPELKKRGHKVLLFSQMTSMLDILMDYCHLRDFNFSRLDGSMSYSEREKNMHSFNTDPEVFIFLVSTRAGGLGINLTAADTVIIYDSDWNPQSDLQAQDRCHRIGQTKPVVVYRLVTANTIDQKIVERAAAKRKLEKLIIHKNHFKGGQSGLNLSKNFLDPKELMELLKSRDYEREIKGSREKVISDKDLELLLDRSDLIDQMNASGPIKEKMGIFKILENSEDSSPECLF
UniProt Q8WUA4: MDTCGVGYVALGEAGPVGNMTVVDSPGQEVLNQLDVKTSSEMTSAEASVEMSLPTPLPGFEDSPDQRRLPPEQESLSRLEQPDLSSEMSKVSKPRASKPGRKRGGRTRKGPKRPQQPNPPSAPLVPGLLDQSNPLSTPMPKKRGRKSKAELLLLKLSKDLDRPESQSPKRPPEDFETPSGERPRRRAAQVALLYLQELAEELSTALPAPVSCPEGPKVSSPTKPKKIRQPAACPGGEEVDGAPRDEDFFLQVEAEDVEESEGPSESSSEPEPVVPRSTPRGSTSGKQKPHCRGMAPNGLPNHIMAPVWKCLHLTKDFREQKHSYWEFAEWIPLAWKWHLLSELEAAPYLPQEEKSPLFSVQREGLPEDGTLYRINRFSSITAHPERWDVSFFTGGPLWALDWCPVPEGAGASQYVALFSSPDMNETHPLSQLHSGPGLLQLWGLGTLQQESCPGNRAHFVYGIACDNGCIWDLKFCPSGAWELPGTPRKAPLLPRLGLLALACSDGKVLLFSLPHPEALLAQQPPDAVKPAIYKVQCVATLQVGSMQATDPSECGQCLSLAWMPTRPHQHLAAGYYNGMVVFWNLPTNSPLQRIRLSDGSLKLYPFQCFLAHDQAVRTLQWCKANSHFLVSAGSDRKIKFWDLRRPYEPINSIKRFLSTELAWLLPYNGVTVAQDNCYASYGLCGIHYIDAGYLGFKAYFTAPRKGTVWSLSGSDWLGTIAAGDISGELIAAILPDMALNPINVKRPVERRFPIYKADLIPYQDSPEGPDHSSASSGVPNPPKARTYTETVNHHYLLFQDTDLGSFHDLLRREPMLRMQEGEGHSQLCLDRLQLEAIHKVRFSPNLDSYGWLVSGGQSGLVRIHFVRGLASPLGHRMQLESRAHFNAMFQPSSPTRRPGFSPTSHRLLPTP
UniProt Q6PII5: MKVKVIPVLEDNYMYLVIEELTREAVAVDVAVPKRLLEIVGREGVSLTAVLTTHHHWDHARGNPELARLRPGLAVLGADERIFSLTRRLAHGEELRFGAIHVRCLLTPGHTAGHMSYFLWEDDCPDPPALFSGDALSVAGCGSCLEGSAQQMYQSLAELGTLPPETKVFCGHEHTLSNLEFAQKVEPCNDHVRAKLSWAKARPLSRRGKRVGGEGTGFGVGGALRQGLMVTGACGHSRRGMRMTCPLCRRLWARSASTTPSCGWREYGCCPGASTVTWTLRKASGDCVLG
UniProt Q8TAA5: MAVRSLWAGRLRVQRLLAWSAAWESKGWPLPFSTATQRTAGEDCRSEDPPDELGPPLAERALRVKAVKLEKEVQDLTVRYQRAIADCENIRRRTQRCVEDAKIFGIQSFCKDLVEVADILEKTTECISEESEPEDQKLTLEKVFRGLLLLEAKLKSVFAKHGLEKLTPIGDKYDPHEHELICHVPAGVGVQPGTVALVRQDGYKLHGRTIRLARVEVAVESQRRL
UniProt Q9BRX5: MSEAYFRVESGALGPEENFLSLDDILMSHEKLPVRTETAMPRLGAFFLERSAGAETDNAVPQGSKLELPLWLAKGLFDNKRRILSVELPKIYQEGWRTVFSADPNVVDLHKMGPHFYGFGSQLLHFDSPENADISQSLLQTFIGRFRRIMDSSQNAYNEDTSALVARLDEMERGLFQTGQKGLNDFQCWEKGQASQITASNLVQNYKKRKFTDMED
UniProt O94992, whole entry: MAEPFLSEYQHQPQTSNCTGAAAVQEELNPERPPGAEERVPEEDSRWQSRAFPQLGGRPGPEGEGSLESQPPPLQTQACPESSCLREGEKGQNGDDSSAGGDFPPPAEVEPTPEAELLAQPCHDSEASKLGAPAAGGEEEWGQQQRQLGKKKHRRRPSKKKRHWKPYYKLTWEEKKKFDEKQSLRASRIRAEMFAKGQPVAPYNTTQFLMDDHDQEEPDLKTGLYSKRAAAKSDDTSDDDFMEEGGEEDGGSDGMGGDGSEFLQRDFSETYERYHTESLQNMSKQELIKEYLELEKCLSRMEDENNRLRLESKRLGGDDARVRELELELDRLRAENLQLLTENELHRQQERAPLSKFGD
UniProt Q9BRT9, whole entry: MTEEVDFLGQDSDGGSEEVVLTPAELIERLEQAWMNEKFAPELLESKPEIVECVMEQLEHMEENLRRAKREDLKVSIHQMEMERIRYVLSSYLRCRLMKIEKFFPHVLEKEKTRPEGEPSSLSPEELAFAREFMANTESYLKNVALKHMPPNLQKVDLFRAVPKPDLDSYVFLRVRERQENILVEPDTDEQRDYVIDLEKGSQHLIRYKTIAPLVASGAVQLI
UniProt P63218: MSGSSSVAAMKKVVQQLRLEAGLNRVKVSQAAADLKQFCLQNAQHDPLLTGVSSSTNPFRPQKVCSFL
UniProt P49841: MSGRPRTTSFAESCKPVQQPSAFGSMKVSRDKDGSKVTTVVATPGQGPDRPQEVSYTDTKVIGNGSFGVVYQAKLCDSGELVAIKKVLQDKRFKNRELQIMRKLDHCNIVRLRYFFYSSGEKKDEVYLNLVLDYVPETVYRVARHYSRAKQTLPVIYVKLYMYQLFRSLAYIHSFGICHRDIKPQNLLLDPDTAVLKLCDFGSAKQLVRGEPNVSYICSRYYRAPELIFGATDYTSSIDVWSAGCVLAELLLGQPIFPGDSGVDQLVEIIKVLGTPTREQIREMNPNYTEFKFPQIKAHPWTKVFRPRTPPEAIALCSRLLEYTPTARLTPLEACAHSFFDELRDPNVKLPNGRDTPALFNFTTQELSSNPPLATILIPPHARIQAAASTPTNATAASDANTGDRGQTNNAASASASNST

The list shows a part of the results.

Compound in the experiment: COc1ccc(Cn2ccc3ccc(C(=O)NO)cc32)cc1
The experiment is described as follows: dose-dependent thermal stabilisation call (2D-TPP, DLPTP, 10% FDR) (binary (1 = stabilised)); higher = stabilised by the compound. The note with it: system: HL-60 intact cells; concentration range 0.04-10 µM.
For the target GPKOW (UniProt Q92917), the “dose-dependent thermal stabilisation call” value was inactive: 0.
As to HLCS (UniProt P50747), the “dose-dependent thermal stabilisation call” value is inactive: 0.
In the case of HADHA (UniProt P40939), the “dose-dependent thermal stabilisation call” value was active: 1.
The figure for GPATCH4 (UniProt Q5T3I0) is inactive: 0; for HCG_18290 it is inactive: 0.
As to GCS1 (UniProt Q13724), the “dose-dependent thermal stabilisation call” value is inactive: 0.
The same measure for GMPPA (UniProt Q96IJ6): inactive: 0; for GOLPH3L (UniProt Q9H4A5): inactive: 0; for GOT1 (UniProt P17174): inactive: 0.
As for GOT2 (UniProt P00505), the “dose-dependent thermal stabilisation call” value was inactive: 0.
As to GNAS, the “dose-dependent thermal stabilisation call” value is inactive: 0.
Turning to HDGF (UniProt P51858), the “dose-dependent thermal stabilisation call” value was inactive: 0.
In the case of HADH (UniProt Q16836), the “dose-dependent thermal stabilisation call” value was inactive: 0.
For the target HCFC1 (UniProt P51610), the “dose-dependent thermal stabilisation call” value is inactive: 0.
The same measure for HIST1H4A (UniProt P62805): active: 1; for HIRA (UniProt P54198): inactive: 0; for GPD2 (UniProt P43304): inactive: 0.
The figure for GTSF1 (UniProt Q8WW33) is inactive: 0; for GNPNAT1 (UniProt Q96EK6) it is inactive: 0.
As to GNB2L1 (UniProt P63244), the “dose-dependent thermal stabilisation call” value is inactive: 0.
Consider GLT8D3 (UniProt Q4G148), for which the “dose-dependent thermal stabilisation call” value is inactive: 0.
For the target GSS (UniProt P48637), the “dose-dependent thermal stabilisation call” value was inactive: 0.
The same measure for GLRX (UniProt P35754): inactive: 0; for GSTO1 (UniProt P78417): active: 1; for GGA1 (UniProt Q9UJY5): inactive: 0.
For the target HELLS (UniProt Q9NRZ9), the “dose-dependent thermal stabilisation call” value is inactive: 0.
Take GTF3C2 (UniProt Q8WUA4): the “dose-dependent thermal stabilisation call” value is inactive: 0.
As to HAGHL (UniProt Q6PII5), the “dose-dependent thermal stabilisation call” value is inactive: 0.
GRPEL2 (UniProt Q8TAA5): the “dose-dependent thermal stabilisation call” value is inactive: 0.
GCNT1 (UniProt Q02742): the “dose-dependent thermal stabilisation call” value was inactive: 0.
Consider GNL3L (UniProt Q9NVN8), for which the “dose-dependent thermal stabilisation call” value is inactive: 0.
Consider GINS3 (UniProt Q9BRX5), for which the “dose-dependent thermal stabilisation call” value was inactive: 0.
The same measure for HEXIM1 (UniProt O94992): inactive: 0; for GSDMD (UniProt P57764): inactive: 0.
The figure for GINS4 (UniProt Q9BRT9) is inactive: 0; for GNG5 (UniProt P63218) it is inactive: 0; for GSK3B (UniProt P49841) it is inactive: 0.
